Measurements: article PMC8516944
These are yes or no findings as the source states them, for the method shown. Binding seen in cells or lysates may run through a third protein. A result given as binding can be weak or reduced; the word gives no strength.

Target: T1, AFP in the culture supernatant of HepG2 cells stably overexpressing GP73 (human (endogenous in HepG2)) (UniProt P02771)
T1 sequence: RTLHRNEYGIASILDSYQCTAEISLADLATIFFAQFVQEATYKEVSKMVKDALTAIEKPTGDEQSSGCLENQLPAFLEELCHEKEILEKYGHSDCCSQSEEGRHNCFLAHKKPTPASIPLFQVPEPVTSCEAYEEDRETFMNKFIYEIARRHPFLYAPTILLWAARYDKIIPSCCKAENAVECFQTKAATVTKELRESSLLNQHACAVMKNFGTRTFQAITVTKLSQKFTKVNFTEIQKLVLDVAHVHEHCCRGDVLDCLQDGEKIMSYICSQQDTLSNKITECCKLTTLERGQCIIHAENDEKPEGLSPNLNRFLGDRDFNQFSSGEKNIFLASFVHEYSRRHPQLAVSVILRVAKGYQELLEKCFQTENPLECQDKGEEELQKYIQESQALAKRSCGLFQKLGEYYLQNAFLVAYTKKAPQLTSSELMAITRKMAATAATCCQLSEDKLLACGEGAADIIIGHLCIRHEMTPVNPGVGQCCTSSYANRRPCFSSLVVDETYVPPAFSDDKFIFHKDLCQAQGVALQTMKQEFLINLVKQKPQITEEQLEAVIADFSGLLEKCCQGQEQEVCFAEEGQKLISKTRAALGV
Experiment: co-IP; cell culture supernatant of HepG2 cells stably overexpressing GP73 (GP73-OE-SP)

GP73 in the culture supernatant of HepG2 cells stably overexpressing GP73 (GP73-OE-SP)
binding: binds
